The target of this assay is T1, Ubiquitin carboxyl-terminal hydrolase L3 (UCHL3) (human (endogenous in Hep3B and Huh7)) (UniProt P15374).
T1 sequence: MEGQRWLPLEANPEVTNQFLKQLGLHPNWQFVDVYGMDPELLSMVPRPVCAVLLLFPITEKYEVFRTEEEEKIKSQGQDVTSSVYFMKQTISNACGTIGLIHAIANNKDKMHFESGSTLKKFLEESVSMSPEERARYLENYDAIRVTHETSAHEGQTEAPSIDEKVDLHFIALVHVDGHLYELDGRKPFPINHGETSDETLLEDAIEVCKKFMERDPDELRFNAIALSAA
Nature of the assay: affinity purification with mass spectrometry; co-immunoprecipitation with UCHL3 antibody followed by mass spectrometry (IP-MS); cell line not named.

The chains behind the UniProt entries cited, without tags or fusion partners.
UniProt P08670: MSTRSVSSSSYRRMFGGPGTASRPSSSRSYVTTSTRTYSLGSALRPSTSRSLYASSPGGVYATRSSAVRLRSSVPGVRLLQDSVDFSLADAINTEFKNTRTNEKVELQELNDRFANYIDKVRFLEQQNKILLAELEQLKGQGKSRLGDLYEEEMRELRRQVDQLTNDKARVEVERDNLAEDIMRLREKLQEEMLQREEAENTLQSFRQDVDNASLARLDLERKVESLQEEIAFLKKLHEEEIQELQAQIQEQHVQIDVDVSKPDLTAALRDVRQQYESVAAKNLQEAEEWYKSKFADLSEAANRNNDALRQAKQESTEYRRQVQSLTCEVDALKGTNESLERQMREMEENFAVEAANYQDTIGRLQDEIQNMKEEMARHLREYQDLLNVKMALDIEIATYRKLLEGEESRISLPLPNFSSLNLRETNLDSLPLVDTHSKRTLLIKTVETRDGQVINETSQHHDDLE

These are yes or no findings as the source states them, for the method shown. Binding seen in cells or lysates may run through a third protein. A yes stands for co-enrichment or nearness to the bait. Other partners may have been found.

On to Vimentin (from UniProt P08670 1-466), for which the binding entry was “binds”.

Values taken from article PMC10036040.
